According to patent US20110195494A1 (Boehringer Ingelheim, published 2011):
These are yes or no findings as the source states them, for the method shown. Some results given as binding are weak or reduced against the parent protein; the word gives no strength.

Amino acid sequences for entries named in this document (tags omitted). A change or cut given only in a name is not applied to a line headed by its entry. Chains listed by the source or under a name are the forms on record and can include a tag or linker. Residues count along the entry.
UniProt Q9NR61: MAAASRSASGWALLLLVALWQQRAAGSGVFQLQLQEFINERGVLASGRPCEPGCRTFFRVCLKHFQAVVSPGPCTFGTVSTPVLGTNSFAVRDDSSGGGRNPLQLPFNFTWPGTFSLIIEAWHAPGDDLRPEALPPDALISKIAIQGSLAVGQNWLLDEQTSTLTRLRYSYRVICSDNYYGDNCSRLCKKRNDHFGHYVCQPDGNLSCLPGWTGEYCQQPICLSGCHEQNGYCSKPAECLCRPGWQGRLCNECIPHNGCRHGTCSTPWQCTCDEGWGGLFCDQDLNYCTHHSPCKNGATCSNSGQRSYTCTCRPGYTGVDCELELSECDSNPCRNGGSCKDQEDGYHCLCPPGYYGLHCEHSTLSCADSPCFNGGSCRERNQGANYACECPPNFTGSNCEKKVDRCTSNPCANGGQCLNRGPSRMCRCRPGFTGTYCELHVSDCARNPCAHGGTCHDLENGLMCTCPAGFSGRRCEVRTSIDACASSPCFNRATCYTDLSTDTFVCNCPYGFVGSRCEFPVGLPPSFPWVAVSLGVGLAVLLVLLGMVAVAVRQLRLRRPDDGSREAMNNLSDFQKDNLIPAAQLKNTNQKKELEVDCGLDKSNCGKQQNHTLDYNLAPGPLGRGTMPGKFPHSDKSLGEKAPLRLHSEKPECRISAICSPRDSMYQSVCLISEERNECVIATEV
UniProt Q9JI71: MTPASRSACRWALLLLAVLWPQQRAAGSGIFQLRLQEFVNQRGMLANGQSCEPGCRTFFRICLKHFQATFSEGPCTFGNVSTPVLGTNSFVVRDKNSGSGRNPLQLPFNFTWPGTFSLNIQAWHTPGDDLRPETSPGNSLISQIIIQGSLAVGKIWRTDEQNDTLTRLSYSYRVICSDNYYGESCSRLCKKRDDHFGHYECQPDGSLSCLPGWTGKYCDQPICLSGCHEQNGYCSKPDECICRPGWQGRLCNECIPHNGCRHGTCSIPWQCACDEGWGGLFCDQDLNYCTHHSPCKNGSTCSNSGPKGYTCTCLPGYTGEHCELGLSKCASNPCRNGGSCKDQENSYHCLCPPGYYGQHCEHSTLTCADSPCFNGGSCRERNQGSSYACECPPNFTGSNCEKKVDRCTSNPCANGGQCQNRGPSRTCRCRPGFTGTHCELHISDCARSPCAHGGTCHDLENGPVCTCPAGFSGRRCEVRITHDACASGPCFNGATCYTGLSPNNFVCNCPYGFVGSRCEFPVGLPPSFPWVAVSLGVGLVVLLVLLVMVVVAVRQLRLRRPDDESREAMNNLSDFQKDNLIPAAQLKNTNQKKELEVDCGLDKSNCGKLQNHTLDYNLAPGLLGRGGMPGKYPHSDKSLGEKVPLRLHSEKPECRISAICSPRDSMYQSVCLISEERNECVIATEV
full length mouse DLL4 on overexpressing CHO or HEK293 cells: residues 27-686 of Q9JI71
recombinant mouse DLL4, C-terminally His-tagged extracellular domain (R&D Systems): residues 27-532 of Q9JI71

Legend:
[1] = molecular target: recombinant human DLL4, C-terminally His-tagged extracellular domain (R&D Systems) (human) (UniProt Q9NR61); test: SPR binning
[2] = molecular target: recombinant human DLL4, C-terminally His-tagged extracellular domain (R&D Systems) (human) (UniProt Q9NR61); test: binding ELISA, coated rhDLL4 [binding to rhDLL4]
[3] = molecular target: recombinant human DLL4, C-terminally His-tagged extracellular domain (R&D Systems) (human) (UniProt Q9NR61); test: AlphaScreen competition: biotinylated hDLL4 vs hNotch1/Fc
[4] = molecular target: recombinant human DLL4, C-terminally His-tagged extracellular domain (R&D Systems) (human) (UniProt Q9NR61); test: competition ELISA: biotinylated hDLL4 + binder, binding to coated hNotch1/Fc
[5] = molecular target: full length human DLL4 on overexpressing CHO or HEK293 cells (human) (UniProt Q9NR61); test: FACS on HEK293-hDLL4 cells
[6] = molecular target: full length mouse DLL4 on overexpressing CHO or HEK293 cells (mouse) (UniProt Q9JI71); test: FACS on HEK293-mDLL4 cells
[7] = molecular target: cynomolgus DLL4 on overexpressing cells (cynomolgus (SEQ ID NO: 418 is the rhesus entry, stated 100% identical)); test: FACS on HEK293-cDLL4 cells
[8] = molecular target: recombinant human DLL4, C-terminally His-tagged extracellular domain (R&D Systems) (human) (UniProt Q9NR61); test: binding ELISA, coated rhDLL4
[9] = molecular target: recombinant mouse DLL4, C-terminally His-tagged extracellular domain (R&D Systems) (mouse) (UniProt Q9JI71); test: binding ELISA, coated rmDLL4
[10] = molecular target: recombinant mouse DLL4, C-terminally His-tagged extracellular domain (R&D Systems) (mouse) (UniProt Q9JI71); test: binding ELISA, coated rmDLL4 [binding to rmDLL4]
[11] = molecular target: full length mouse DLL4 on overexpressing CHO or HEK293 cells (mouse) (UniProt Q9JI71); test: FMAT competition: labelled hNotch1/Fc on CHO-mDLL4 cells
[12] = molecular target: full length human DLL4 on overexpressing CHO or HEK293 cells (human) (UniProt Q9NR61); test: FMAT competition: labelled hNotch1/Fc on CHO-hDLL4 cells
[13] = molecular target: full length human DLL4 on overexpressing CHO or HEK293 cells (human) (UniProt Q9NR61); test: FACS titration on human DLL4 overexpressing cells, detection with anti-c-myc Alexa647, mean MCF
[14] = molecular target: full length mouse DLL4 on overexpressing CHO or HEK293 cells (mouse) (UniProt Q9JI71); test: FACS titration on mouse DLL4 overexpressing cells, detection with anti-c-myc Alexa647, mean MCF
[15] = molecular target: cynomolgus DLL4 on overexpressing cells (cynomolgus (SEQ ID NO: 418 is the rhesus entry, stated 100% identical)); test: FACS titration on cynomolgus DLL4 expressing cells, detection with anti-c-myc Alexa647, mean MCF

Measured: binding

B1: DLLBII6B11 (VHH)
VHH: EVQLVESEGGLVQAGGSLRLSCAASGSTFSSYAMGWYRQAPGKQRELVAVISNGGITNYPNSVKGRFTISRDNAKNTVYLQMNSLKPEDTAVYYCFYSGSYYYPTDVHEYDYWGQGTQVTVSS
notes: also called DLLBII06B11; not shown: C-terminal c-myc tag and His6 tag
binds: [1] | [2] | [3] | [4]

B2: DLLBII115A05 (VHH)
VHH: EVQLVESGGGLVQPGGSLRLSCAASGFTFGSYDMSWVRRSPGKGPEWVSSINSGGGSTYYADFVKGRFTISRDNAKNTLYLQMNSLKPEDTAVYYCAADRYIRARQGDYWGAYEYDYWGQGTQVTVSS
notes: also called DLLBII115A5; 115A5; not shown: C-terminal c-myc tag and His6 tag
binds: [5] | [6] | [7] | [8] | [9] | [2] | [10] | [11] | [3] | [12] | [4] | [13] | [14] | [15]

B3: DLLBII136C07 (VHH)
VHH: EVQLVESGGGLVQPGGSLRLSCAASGFTFGSYDMSWVRRSPGKGPEWVSSINSGGGSTYYADYVKGRFTISRDNAKNTLYLQMNSLKPEDTAVYYCAADRYIWARQGEYWGAYEYDYWGQGTQVTVSS
notes: not shown: C-terminal c-myc tag and (His)6 tag
binds: [8] | [4]

B4: DLLBII133G05 (VHH)
VHH: EVQLVESGGGLVQPGGSLRLSCAASGFTFGSYDMSWVRRSPGKGPEWVSAINSGGGSTYYTDYVKGRFTISRDNAKNTLYLQMNSLKPEDTAVYYCAADRYIWARQGEYWGAYAYDYWGQGTQVTVSS
notes: as for B3
binds: [8] | [4]

B5: DLLBII015 (VHH)
VHH: EVQLVESGGGLVQPGGSLRLSCAASGFTIGSYDMSWVRRSPGKGPEWVSAINSGGGSTYYADYVKGRFTISRDNAKNTLYLQMNSLKPEDTAVYYCAADRYIWARQGEYWGAYAYDYWGQGTQVTVSS
notes: as for B3
binds: [8] | [4]

B6: DLLBII133A09 (VHH)
VHH: EVQLVESGGGLVQPGGSLRLSCAASGFTFGSYDMSWVRRSPGKGPEWVSAINSGGGSTYYADYVKGRFTISRDNAKNTLYLQMNSLKPEDTAVYYCAADRYIWARQGEYWGAYAYDYWGQGTQVTVSS
notes: as for B3
binds: [8] | [4]

B7: DLLBII104G01 (VHH)
VHH: EVQLVESGGGLVQAGGSLRLSCAASGFTFDDYAIGWFRQAPGKEREGVSCISSSDGSTYYADSVKGRFTISSDNAKNTVYLQMNSLKPEDTAVYYCATAWCDSSWYRSFVGYWGQGTQVTVSS
notes: also called DLLBII104G1; 104G1; not shown: C-terminal c-myc tag and His6 tag
binds: [1] | [2] | [4]

B8: DLLBII101G08 (VHH)
VHH: EVQLVESGGGLVQAGGSLRLSCAASGRTFSSYAMAWFRQAPGKEREFVAAIRWSGGTAYYADSVQGRFTISRDNAKNTVYLQMNSLKPEDTAVYYCANRAADTRLGPYEYDYWGQGTQVTVSS
notes: also called DLLBII101G8; 101G8; not shown: C-terminal c-myc tag and His6 tag
binds: [8] | [2] | [4]

B9: DLLBII129D08 (VHH)
VHH: EVQLVESGGGLVQAGGSLRLSCAASGRTFSSYAMAWYRQAPGKEREYVAAIRWSGGTAYYADSVQGRFTISRDNAKNTVYLQMNSLKPEDTAVYYCANRAPDTRLEPYLYDYWGQGTQVTVSS
notes: as for B3
binds: [8] | [4]

B10: DLLBII129E11 (VHH)
VHH: EVQLVESGGGLVQAGGSLRLSCAASGRTFSSYAMAWYRQAPGKEREYVAAIRWSGGTAYYADSVQGRFTISRDNAKNTVYLQMNSLKPEDTAVYYCANRAPDTRLRPYLYDYWGQGTQVTVSS
notes: as for B3
binds: [8] | [4]
